For the assay, the target named is EphB1 wt/EGFP (full-length EphB1 in frame with GFP) (UniProt P54762). As to the kind of experiment: co-IP; anti-GFP antibody and agarose beads on lysate of A549 cells transfected with EphB1 wt/EGFP or EphB1 mutants/EGFP; IP buffer 20 mM Tris pH 7.5, 150 mM NaCl, 1% Nonidet P-40, 0.1% sodium deoxycholate; 4 °C overnight; western blot for EfnB2, p38 and p-p38; GFP null vector as negative control.

Amino acid sequences for entries named in this document (tags omitted). Residues count along the entry.
UniProt P54762, residues 18-984: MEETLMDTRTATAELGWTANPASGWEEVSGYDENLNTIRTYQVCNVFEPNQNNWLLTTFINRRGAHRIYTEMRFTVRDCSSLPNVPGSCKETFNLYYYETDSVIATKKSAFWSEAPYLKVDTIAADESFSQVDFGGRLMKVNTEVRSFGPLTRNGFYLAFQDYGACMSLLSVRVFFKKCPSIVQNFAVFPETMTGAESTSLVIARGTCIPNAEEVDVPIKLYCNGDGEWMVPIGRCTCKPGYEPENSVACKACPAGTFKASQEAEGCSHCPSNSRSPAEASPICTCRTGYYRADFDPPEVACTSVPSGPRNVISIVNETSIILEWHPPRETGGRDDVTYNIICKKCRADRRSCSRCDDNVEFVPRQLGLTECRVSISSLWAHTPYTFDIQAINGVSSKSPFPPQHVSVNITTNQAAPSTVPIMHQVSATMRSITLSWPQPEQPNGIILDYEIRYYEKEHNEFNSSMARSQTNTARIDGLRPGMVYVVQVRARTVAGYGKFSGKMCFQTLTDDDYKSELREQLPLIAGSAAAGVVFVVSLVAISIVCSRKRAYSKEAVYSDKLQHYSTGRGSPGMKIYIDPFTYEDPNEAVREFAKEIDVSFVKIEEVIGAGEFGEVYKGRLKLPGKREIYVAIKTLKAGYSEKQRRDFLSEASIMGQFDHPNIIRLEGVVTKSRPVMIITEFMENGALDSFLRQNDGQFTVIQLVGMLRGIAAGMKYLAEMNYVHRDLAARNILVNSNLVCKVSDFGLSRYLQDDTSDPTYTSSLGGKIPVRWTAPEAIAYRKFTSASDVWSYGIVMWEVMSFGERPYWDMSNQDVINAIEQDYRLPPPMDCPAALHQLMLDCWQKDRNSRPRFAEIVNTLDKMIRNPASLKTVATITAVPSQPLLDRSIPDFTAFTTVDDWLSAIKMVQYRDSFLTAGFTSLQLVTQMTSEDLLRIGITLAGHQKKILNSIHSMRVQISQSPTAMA
UniProt P52799, residues 28-333: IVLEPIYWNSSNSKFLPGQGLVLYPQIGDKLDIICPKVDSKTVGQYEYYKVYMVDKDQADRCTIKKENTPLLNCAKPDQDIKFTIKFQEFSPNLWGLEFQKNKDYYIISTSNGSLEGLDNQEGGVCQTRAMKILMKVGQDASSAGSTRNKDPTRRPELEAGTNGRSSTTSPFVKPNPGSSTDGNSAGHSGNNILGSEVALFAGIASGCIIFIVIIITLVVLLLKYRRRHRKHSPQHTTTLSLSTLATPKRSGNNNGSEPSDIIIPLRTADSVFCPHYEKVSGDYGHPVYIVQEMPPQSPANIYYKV

Experimental findings from paper PMC9675789 are described below.

Results are given in words; binding and its absence hold for the method and conditions named. Binding seen in cells or lysates may run through a third protein. Some binding calls cover weakened binding; strength is not graded here.

For the substance “EfnB2 (EphrinB2) (from UniProt P52799 28-333) (ligand)”, the binding entry is “binds”.
